In article PMC8990465:
No constants are given. Whether binding was seen depends on the method and setting. In cells and extracts the contact can be indirect. A result given as binding can be weak or reduced; the word gives no strength.

Biological target: SIRT3 (NAD-dependent protein deacetylase sirtuin-3, mitochondrial) (human (endogenous in Caki-1))
Experiment: co-IP; SIRT3 antibody overnight at 4 °C, then protein A/G magnetic beads 2 h at room temperature; mitochondria of CLDN10 overexpression and control Caki-1 cells; western blot for ATP5O

binding: binds
B1: ATP5O protein (ATP synthase subunit O, mitochondrial) (protein, UniProt P48047 24-213)
chain: FAKLVRPPVQVYGIEGRYATALYSAASKQNKLEQVEKELLRVAQILKEPKVAASVLNPYVKRSIKVKSLNDITAKERFSPLTTNLINLLAENGRLSNTQGVVSAFSTMMSVHRGEVPCTVTSASPLEEATLSELKTVLKSFLSQGQVLKLEAKTDPSILGGMIVRIGEKYVDMSVKTKIQKLGRAMREIV
